Primary screen of a compound library

The chains behind the UniProt entries cited, without tags or fusion partners.
UniProt E9BF75, entry or part of it: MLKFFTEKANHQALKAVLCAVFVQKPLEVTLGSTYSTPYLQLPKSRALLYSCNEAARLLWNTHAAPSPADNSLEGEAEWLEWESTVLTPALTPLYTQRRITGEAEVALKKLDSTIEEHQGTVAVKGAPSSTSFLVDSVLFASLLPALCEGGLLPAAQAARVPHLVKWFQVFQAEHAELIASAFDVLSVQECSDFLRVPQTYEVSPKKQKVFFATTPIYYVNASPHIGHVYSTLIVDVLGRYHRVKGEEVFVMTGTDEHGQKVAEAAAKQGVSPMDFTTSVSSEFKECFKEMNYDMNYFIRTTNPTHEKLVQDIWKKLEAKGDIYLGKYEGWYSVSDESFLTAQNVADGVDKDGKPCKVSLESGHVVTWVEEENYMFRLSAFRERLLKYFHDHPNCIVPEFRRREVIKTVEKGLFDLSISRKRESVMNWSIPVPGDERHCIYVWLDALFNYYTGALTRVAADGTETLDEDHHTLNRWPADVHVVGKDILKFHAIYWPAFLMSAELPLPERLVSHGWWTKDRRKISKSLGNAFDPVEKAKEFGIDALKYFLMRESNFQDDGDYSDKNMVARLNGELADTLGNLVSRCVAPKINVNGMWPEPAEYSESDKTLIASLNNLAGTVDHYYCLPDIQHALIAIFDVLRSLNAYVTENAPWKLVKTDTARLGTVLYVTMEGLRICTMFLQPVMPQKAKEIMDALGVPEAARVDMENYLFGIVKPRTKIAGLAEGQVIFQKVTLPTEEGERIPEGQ

Data taken from ChEMBL document CHEMBL3988442, “University of Dundee, Small-Polar-MMV Screening Library” (2021).

All values are in %.
The record does not define 0% and 100%; most values in the screen are far below 50% and negative numbers occur (in some assays of this library far below -100).
This is an unselected part of the compounds tested.

A: 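Assay on Mycobacterium tuberculosis, filed only as a heat shock assay from Cornell; the read-out is not stated. The concentration is filed as 10 mM, unlikely as a test dose, so the dose is not known. Higher reads as stronger inhibition (inferred: compounds with an IC50 in retests scored well above the rest). Size under these conditions: about 69,000 compounds, about 930 of them at 50% or above in at least one test.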
B: 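Primary screen of methionyl-tRNA synthetase; the read-out is not stated. Target: Methionyl-tRNA synthetase (putative), Leishmania donovani (UniProt E9BF75). The test concentration is not given. The values are filed as inhibition. Of about 68,000 compounds tested this way, about 24 (0.035%) reached 50% or more in at least one test.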
C: 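Whole-cell assay for inhibitors of Mycobacterium tuberculosis growth, labelled Cornell in the record; the read-out is not stated. The concentration is filed as 10 mM, unlikely as a test dose, so the dose is not known. The record gives no direction; compounds strong in two other growth screens of this library score well above the rest, so higher reads as stronger inhibition. About 53,000 compounds were tested under these conditions; 1.7% (about 900) showed 50% or more at least once.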

Result for N#CC1(NC(=O)Cc2cc(Cl)c3c(c2)OCCO3)CCC1 was A: -31.51%; B: 16.98%; C: -0.1021%. Result for CCc1nc(C2CCCN(C(=O)c3ccncc3)C2)no1 (centres unmarked) was A: -0.1347%; B: 15.47%. CC(C)Oc1ncc(C(=O)N2CCCC(C(=O)O)C2)cc1Cl (centres unmarked) gave A: 10.16%; B: 10.09%; C: 29%. Result for Cc1cnc(-c2nc(O)c3c(n2)CN(C(=O)C2CCOC2)CC3)cn1 (centres unmarked) was A: 16.53%; B: 12.03%; C: 13.55%. COCCC1(CNC(=O)NC2CCCN(C)C2)CC1 (centres unmarked) read A: 11.49%; B: 4.348%; C: 4.034%.

For CC(NC(=O)c1ccc(Cl)cc1)c1nnc(SCC(=O)O)n1C (centres unmarked) the result was A: -2.596%; B: 2.764%. For Cc1ccc([C@@H]2CN(C(=O)c3cc(C)no3)C[C@H]2NC(=O)C2CC2)cc1 the result was A: 0.9358%; B: 4.396%. Result for O=S(=O)(NC[C@H]1C[C@@H]2CCN1C[C@@H]2CN1CCCC1)c1ccc(Cl)cc1 was B: 5.495%. Cc1cc(C)n(C2CN(CCC(=O)NC3CCCCC3)C2)n1 read A: 3.819%; B: 11.17%; C: 43.22%. For Cc1ccc(CN(C)Cc2nc3c(cnn3C)c(=O)[nH]2)c(C)c1 the result was A: -12.38%; B: 1.567%; C: -40.17%.

For Cc1cc(CN(C)Cc2ccccc2N2CCCCC2)n[nH]1 the result was A: -11.76%; B: 20.25%; C: 9.207%. O=S(=O)(NCc1ccccc1Cn1cncn1)C1CCCC1 read A: -14.23%; B: 16.67%. COc1ccc(Br)c(C(=O)N2CCCC(c3nc(C)no3)C2)c1 (centres unmarked) gave A: 1.127%; B: 7.904%; C: 25.99%. O=C(O)C(F)(F)F.O=C(O)C(F)(F)F.[H][C@@]12C[C@H](C(=O)NC3CC3)CN(Cc3cccnc3)[C@]1([H])CCO2 gave A: 0.4638%; C: -13.85%. COc1ccccc1CC(C)CC(=O)NS(=O)(=O)C(C)C (centres unmarked) gave A: 11.83%; B: 7.551%; C: 21.45%.

Cn1cnc(S(=O)(=O)NCCCN2CCCC2)c1Cl gave A: -10.76%; B: 18.33%; C: 8.69%. COc1ccc(CC(=O)N2CCCN(c3ccc(C#N)cc3)CC2)cc1 gave A: 9.905%; B: 17.61%; C: 1.257%. With COCc1ccccc1NC(=O)NCc1ccc(OCC2CC2)nc1 the screen gave A: 4.055%; B: 17.23%; C: -10.09%. Cc1[nH]c2c(C)ccc(C)c2c1CC(=O)NCc1csc(N(C)C)n1 read A: 7.38%; B: 12.71%; C: 15.39%. c1ccc(CN2CCc3ncnc(-c4ccncc4)c3CC2)nc1 read B: 8.571%.

The last 2 entries again:

Cc1[nH]c2c(C)ccc(C)c2c1CC(=O)NCc1csc(N(C)C)n1 gave A: 7.38%; B: 12.71%; C: 15.39%.
c1ccc(CN2CCc3ncnc(-c4ccncc4)c3CC2)nc1 gave B: 8.571%.